According to patent US11980211B2, “Verbascoside and related compounds for sweetness enhancement” (International Flavors & Fragrances Inc., priority 2018, dated 2024):

Assay: Taste and smell of verbascoside and isoverbascoside solutions alone
Description: A sucrose solution (4%) was prepared in water. Each of verbascoside and isoverbascoside solutions of different concentrations was prepared in ethanol solution in water (50%). Verbascoside and isoverbascoside were evaluated at 1 and 200 ppm, respectively.

## CC1OC(OC2C(O)C(OCCc3ccc(O)c(O)c3)OC(CO)C2OC(=O)/C=C/c2ccc(O)c(O)c2)C(O)C(O)C1O [Verbascoside, (E)-2-(3,4-dihydroxyphenyl)ethyl 3-O-(6-deoxy-α-L-mannopyranosyl)-4-[3-(3,4-dihydroxyphenyl)-2-propenoate]-β-D-Glucopyranoside]
Compound alone at 1 ppm
  taste and smell: devoid of taste and smell

## CC1OC(OC2C(O)C(COC(=O)/C=C/c3ccc(O)c(O)c3)OC(OCCc3ccc(O)c(O)c3)C2O)C(O)C(O)C1O (centres unmarked) [Isoverbascoside, isoverbascoside]
Compound alone at 200 ppm
  taste and smell: devoid of taste and smell
